Values quoted from earlier work in US20040022740A1, “Macrolide formulations for inhalation and methods of treatment of endobronchial infections” (priority 2003, published 2004).
At least one read-out could not be matched to a standard name with certainty.

Settings: in plasma, nonenzymatic process

## CC[C@H]1OC(=O)[C@H](C)[C@@H](O[C@H]2C[C@@](C)(OC)[C@@H](O)[C@H](C)O2)[C@H](C)[C@@H](O[C@@H]2O[C@H](C)C[C@H](N(C)C)[C@H]2O)[C@](C)(O)C[C@@H](C)[C@@H]2N[C@@H](COCCOC)O[C@H]([C@H]2C)[C@]1(C)O [dirithromycin]
  half-life of hydrolysis of the cyclic acetal: approximately 30 minutes
